Test results reported in PubChem BioAssay AID2685 (National Center for Advancing Translational Sciences (NCATS), 2010).
Some of the results follow. Shown are side measurements of this screen, not its main read-out; they come without a call. Compounds called inactive in the main read-out are mostly missing here. Potencies come from curve fits of mixed quality, noted in brackets.

Experiment: qHTS Assay for Lipid Storage Modulators in Drosophila S3 Cells;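 as to cell number change: cells counted by Cell Tracker Red CMTPX staining in the red channel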
Details: BODIPY lipid droplet fluorescence, 18-24 h; for cell number change: measured here: cell count max response, cells fed with added oleic acid
How it was run: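 Drosophila S3 cells got compounds at several concentrations plus oleic acid (400 uM solution). Laser-scanning cytometry with 488 nm excitation read lipid droplets at 500-530 nm and cells at 575-640 nm. Percent activity was relative to 20 uM Triacsin C.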

[1] = measured here: lipid fluorescence (Fed channel) AC50, cells fed with added oleic acid
[2] = measured here: cell number channel AC50, cells fed with added oleic acid

Structure (SMILES) | cell number change | AC50 [1] | AC50 [2]
O=C(Cn1ncc2c(=O)oc3ccccc3c21)N1CCN(c2ccccn2)CC1 | -21.3% | 0.00517 µM [falling, full curve, poor fit] | 
N#CCCn1cc(C(CC(=O)c2ccc(Br)cc2)C(=O)O)c2ccccc21 (configuration not stated) | -7.89% |  | 
O=C(Nc1ccc(Oc2ccc(Cl)cc2)cc1)c1ncn[nH]1 | 0.498% | 0.82 µM [rising, full curve, poor fit] | 
CC1CC(C)CN(C(=O)c2ccc(-c3ccc([N+](=O)[O-])cc3)o2)C1 (configuration not stated) | 50% | 11.6 µM [falling, partial curve] | 2.06 µM [rising, full curve]
COc1ccccc1-n1nc(C)c(-c2ccccc2)c1N |  | 2.91 µM [rising, single point] | 
Nc1nc2nc(-c3ccc(Cl)cc3)cc(C(F)(F)F)n2n1 |  |  | 6.51 µM [rising, single point]
CCCS(=O)c1nc(C)cc(C)c1S(C)(=O)=O (configuration not stated) | 18.9% | 0.00461 µM [falling, full curve, poor fit] | 
CCCCC(CC)C(=O)NCC(C)NC(=O)C(CC)CCCC (configuration not stated) |  |  | 2.91 µM [falling, single point]
O=C(O)CCC(=O)Nc1sc2c(c1C(=O)NCc1ccccc1)CCCC2 | -16.9% |  | 
CCC(C)C(=O)Nc1cc(Cl)ccc1C(=O)O (configuration not stated) | 33.4% |  | 0.164 µM [rising, full curve]
O=C1OC(Nc2ccccn2)c2ccccc21 (configuration not stated) | -12.5% | 0.092 µM [falling, full curve, poor fit] | 
CNC(=O)C(=O)NCC1OCCN1S(=O)(=O)c1ccc(OC)c(OC)c1 (configuration not stated) | 14.8% | 4.47 µM [rising, single point] | 3.98 µM [rising, single point]
Cc1nc(S(=O)(=O)N2CCOCC2)c(C#N)c(C)c1Cl | -8.53% |  | 0.0651 µM [falling, full curve, poor fit]
COc1cc(NC(=O)c2ccc(Br)o2)ccc1NC(=O)C(C)C | 32.7% | 1.16 µM [rising, single point] | 7.31 µM [rising, partial curve, poor fit]
CC(C)C(OC(=O)c1nsc(Cl)c1Cl)C(=O)NCC1CCCO1 (configuration not stated) | 15.8% | 29.1 µM [rising, single point] | 
COc1ccc(N=c2scc(C)n2CCCN2CCCC2=O)cc1 |  | 4.61 µM [rising, single point] | 6.51 µM [rising, single point]
Cc1cc(NC(=O)CSc2nnc(-c3ccc([N+](=O)[O-])cc3)o2)no1 | 1.29% | 0.517 µM [falling, partial curve] | 
COc1cccc(NC(=O)CN(C)C(=O)c2c(C)nn(-c3ccccc3)c2Cl)c1 | 11.1% | 0.82 µM [rising, full curve] | 
O=C(Nc1ncc2c(n1)-c1ccccc1OC2)c1ccc(Cl)cc1 | -7.47% | 0.0651 µM [falling, full curve, poor fit] | 
COC(=O)CN1C(=O)C2(OCCCO2)c2ccccc21 | 30.6% |  | 0.116 µM [rising, full curve]
O=c1[nH]ncc(N2CCCC2)c1Cl | -29.4% | 29.1 µM [falling, single point] | 

Reprinted at random: 3 compounds from above.
Structure (SMILES) | cell number change | AC50 [1] | AC50 [2]
CNC(=O)C(=O)NCC1OCCN1S(=O)(=O)c1ccc(OC)c(OC)c1 (configuration not stated) | 14.8% | 4.47 µM [rising, single point] | 3.98 µM [rising, single point]
COC(=O)CN1C(=O)C2(OCCCO2)c2ccccc21 | 30.6% |  | 0.116 µM [rising, full curve]
Nc1nc2nc(-c3ccc(Cl)cc3)cc(C(F)(F)F)n2n1 |  |  | 6.51 µM [rising, single point]

The list goes on.

Structure (SMILES) | cell number change | AC50 [1] | AC50 [2]
CC1CCCN(C2=C(Cl)C(=O)N(c3cccc(Cl)c3)C2=O)C1 (configuration not stated) | -2.98% | 6.51 µM [rising, single point] | 
Cc1ccc(N=Cc2cc(Br)cc(Cl)c2O)cc1 | 5.46% |  | 0.651 µM [falling, single point]
O=C(CSc1ccccc1)NNC(=O)c1ccncc1 | -7.5% |  | 
Cc1ccc(OCC(=O)N[C@@H](C)c2nnc3ccccn23)cc1C | 16% | 0.13 µM [rising, full curve, poor fit] | 
CCOc1ccc(/C=C/C(=O)NCCc2ccc(OC)c(OC)c2)cc1 | -43.8% |  | 16.4 µM [falling, single point]
Cc1nc2scc(C)n2c(=O)c1S(=O)(=O)Nc1ccc(N2CCN(C(=O)C(C)C)CC2)cc1 | 5.2% | 2.06 µM [rising, partial curve] | 
Cc1ccc(CS(=O)Cc2ccc(C(=O)NC3CCCC(C)C3C)o2)cc1 (configuration not stated) | -16.1% | 6.51 µM [rising, partial curve] | 
CN(Cc1ccc(C(C)(C)C)cc1)C(=O)c1ccc2c(=O)n3c(nc2c1)CCC3 | 55.4% |  | 13 µM [rising, partial curve]
Cc1ccc(NC(=O)C2=CC(c3cccs3)=NS(=O)(=O)N2C)cc1 | 26.5% | 29.1 µM [falling, single point] | 
CCN(C(=O)COC(=O)c1cc(C)oc1C)c1c(N)n(Cc2ccccc2)c(=O)[nH]c1=O | 11.6% |  | 2.59 µM [falling, single point]
S=c1[nH]nc(-c2ccco2)n1/N=C/c1ccc(Cl)c(Cl)c1 | -51.5% |  | 9.2 µM [falling, partial curve]
Cc1ccc(Nc2nc(-c3ccc(S(=O)(=O)N4CCOCC4)cc3)cs2)cc1Cl | 9.75% | 16.4 µM [falling, partial curve, poor fit] | 
CCOC(=O)Cn1c(=O)oc2cc(S(=O)(=O)N3CCN(c4ccccn4)CC3)ccc21 | -15% | 2.59 µM [rising, full curve] | 
COc1ccc(OCCC(=O)OCC(=O)NC(=O)NC2CCCCC2)cc1 | 2.94% | 3.66 µM [rising, partial curve, poor fit] | 
Nc1cccc(Oc2c(F)c(F)c(Oc3cccc(N)c3)c(F)c2F)c1 | -25% | 29.1 µM [falling, single point] | 
O=C1CN(C(=O)COC(=O)c2ccccc2O)c2ccccc2N1 | 17.3% | 0.82 µM [falling, full curve, poor fit] | 
CSc1ccccc1C(=O)Nc1cccc(N(C)S(C)(=O)=O)c1 | 11.5% | 16.4 µM [rising, partial curve, poor fit] | 
COC(=O)c1sc(S(=O)(=O)NCC(=O)O)c(C(=O)OC)c1C | -8.65% |  | 0.103 µM [falling, full curve, poor fit]
CC(NC(=O)COC(=O)CCNC(=O)c1ccco1)C12CC3CC(CC(C3)C1)C2 (configuration not stated) | -10.4% |  | 
CC(C)Cc1ccc(/C=C/C(=O)NC2CC2)cc1 |  | 6.51 µM [rising, single point] | 
O=C(Nc1nc(-c2ccc([N+](=O)[O-])cc2)cs1)c1c(F)cccc1F | -14.2% | 0.461 µM [rising, partial curve] | 

Structure (SMILES) | cell number change | AC50 [1] | AC50 [2]
CCc1[nH]c(=O)c(C#N)c2c1CCCC2 | -3.38% | 6.51 µM [falling, single point] | 
CCNC(=O)c1cccc(NC(=O)c2cc(C3CC3)nc3c2cnn3C(C)C)c1 | 24.9% |  | 
CC(=O)c1cc(C#N)c(SCc2ccc(F)cc2)nc1C | 32.9% | 29.1 µM [rising, single point] | 6.51 µM [falling, single point]
O=S(=O)(NC1CCCCC1)c1ccc(-c2csnn2)s1 | 57.9% | 0.731 µM [rising, full curve, poor fit] | 3.66 µM [rising, full curve]
Nc1cccc(CCc2ccncc2)c1 | -16.3% | 29.1 µM [falling, single point] | 
CN(C(=O)CSc1nnc(C2CC2)n1-c1ccccc1)C1CCS(=O)(=O)C1 (configuration not stated) | 11.4% | 18.4 µM [rising, partial curve] | 
COCCn1c(=S)[nH]c2cc(C(=O)N3CC(C)CC(C)C3)ccc2c1=O (configuration not stated) | -1.53% | 9.2 µM [falling, partial curve, poor fit] | 
COc1cccc(OC)c1OCCCOc1cccc2cccnc12 | 7.01% | 23.1 µM [falling, single point] | 
COc1ccc(OC)c(CN2CCN(C(=O)c3cccs3)CC2)c1 | 34.2% |  | 6.51 µM [rising, single point]
C[C@H]1CN=C(N(C)C)N1CC1CCCCC1 | -12% | 0.00461 µM [rising, full curve, poor fit] | 
CC(C)Cn1c(N)c(C(=O)COC(=O)c2cccc(F)c2)c(=O)n(C)c1=O | 32.6% |  | 29.1 µM [rising, single point]
CCOc1ccc(NC(=O)[C@@H](NC(=O)c2ccccc2)[C@@H](C)CC)cc1 | -5.65% |  | 6.51 µM [rising, single point]
Fc1ccc(/C=N/Nc2nnnn2-c2ccccc2)cc1 |  | 5.17 µM [falling, partial curve, poor fit] | 
CCc1ccc(CNC(=O)C2CCN(S(=O)(=O)N3CCC(C)CC3)CC2)cc1 | 17.6% | 29.1 µM [falling, partial curve, poor fit] | 
CCCCN(C)C(=O)C1CCN(c2ccc(S(=O)(=O)N3CCOCC3)cc2[N+](=O)[O-])CC1 | -16.2% | 5.17 µM [falling, partial curve, poor fit] | 
Clc1ccccc1-c1nc(-c2ccncc2)no1 | -36.9% | 1.84 µM [falling, partial curve] | 
O=C(CCS(=O)(=O)c1ccc(F)cc1)Nc1nnc(-c2ccc(F)cc2)o1 | 20% |  | 
COc1ccc2oc(C(=O)OCC(=O)N(C)c3c(N)n(Cc4ccccc4)c(=O)[nH]c3=O)c(C)c2c1 | -62.8% | 0.461 µM [falling, single point] | 29.1 µM [falling, single point]
C/C(=C\C(=O)OCC(=O)NCc1ccccc1)C(=O)OCC(=O)NCc1ccccc1 | -9.78% | 0.0092 µM [falling, full curve, poor fit] | 
